From PubChem BioAssay AID2685 (National Center for Advancing Translational Sciences (NCATS), 2010) come the findings set out here.

As usually defined, the AC50 is the midpoint of the concentration-response curve, whichever way the signal moves. Higher therefore signals activity only at high concentration.

The list shows a part of the results. The main result of the screen is listed elsewhere. These columns were measured beside it and carry no call. Compounds called inactive in the main read-out are mostly missing here. Words in brackets tell the shape of the fitted curve; partial curves, single points and poor fits give uncertain potencies.

The experiment can be described thus: qHTS Assay for Lipid Storage Modulators in Drosophila S3 Cells.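 For cell number change: cells counted by Cell Tracker Red CMTPX staining in the red channel.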 The settings on record: BODIPY lipid droplet fluorescence, 18-24 h; for cell number change: measured here: cell count max response, cells fed with added oleic acid. The method, boiled down: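 Drosophila S3 cells loaded with oleic acid (400 uM, as added) and compounds at several concentrations; lipid droplets imaged by 488-nm laser-scanning cytometry, 500–530 nm intensity and object ratio to cell channel. Percent activity normalized to 20 uM Triacsin C.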
Background: In qHTS, concentration-response curves come from the screen itself.

Setting [1] is: measured here: lipid fluorescence (Fed channel) AC50, cells fed with added oleic acid.
Where [2] appears, read: measured here: cell number channel AC50, cells fed with added oleic acid.

On to `CCCCCNC(=O)C1CC(=O)OC12CCCCC2` (centres undefined), for which the cell number change was found to be 31.6%. Further, the AC50 under setting [1] is 32.6 µM [rising, single point].

Take `O=C(Nc1cccnc1)c1sc(Nc2ccccc2)nc1-c1ccccc1`: the AC50 under setting [1] was 4.61 µM [rising, partial curve].

For the molecule `Cc1cc(C)n(-c2nc(C)nc(NCc3ccccc3)n2)n1`, the cell number change amounted to 16.6%. In addition, the AC50 under setting [2] was 0.0206 µM [rising, full curve, poor fit]. Besides, the AC50 under setting [1] is 0.058 µM [rising, full curve]. `Cc1cc2occ(CC(=O)N(C)CC(=O)Nc3cccc(F)c3)c2cc1C`: the cell number change was -23.8%.

Consider `NC(=O)CC(NC(=O)Cc1cccc2ccccc12)c1ccc(N2CCN(c3ccccc3)CC2)c([N+](=O)[O-])c1` (centres undefined), for which the cell number change is 16.3%. Moreover, the AC50 under setting [1] was 7.31 µM [rising, partial curve, poor fit]. Regarding `CCCc1ccc(C(=O)NC(=O)c2ccccc2O)cc1`, the cell number change was -53.4%. Also, the AC50 under setting [2] is 5.8 µM [falling, full curve]. For the same molecule, the AC50 under setting [1] is 2.31 µM [falling, full curve]. Turning to `CCCNC(=O)C1CC(c2cccc(F)c2)=NO1` (centres undefined), the cell number change was determined as 35.4%. Besides, under setting [2], the AC50 is 1.84 µM [rising, partial curve, poor fit]. For `Cc1nn(C)c(C(=O)N/N=C/c2ccc(C(F)(F)F)cc2)c1[N+](=O)[O-]`, the cell number change is -44.2%. Also, under setting [2], the AC50 was 25.9 µM [falling, single point]. For the same molecule, the AC50 under setting [1] is 0.58 µM [falling, full curve]. With `O=C(CSc1nnc(-c2ccc(OC(F)F)cc2)o1)N1CCOCC1`, the cell number change stood at 37.8%. The AC50 under setting [2] is 14.6 µM [rising, partial curve, poor fit]. Besides, the AC50 under setting [1] is 11.6 µM [rising, single point]. On to `CCC1CCCCN1CCCNC(=O)CN1C(=O)CSc2ccc(S(=O)(=O)N3CCOCC3)cc21` (centres undefined), for which the cell number change was 3.36%. Besides, under setting [1], the AC50 was 6.51 µM [rising, single point].

In the case of `COc1ccc(S(=O)(=O)NCCSC(C)(C)C)cc1`, the AC50 under setting [1] was 0.13 µM [falling, full curve].

As to `CCOC(=O)N1CCN(C(=O)CC(C)S(=O)(=O)c2cc3c(cc2C)NC(=O)CO3)CC1` (centres undefined), the cell number change was -42.8%. For the same molecule, under setting [2], the half-maximal activity concentration (AC50) was 29.1 µM [falling, single point]. Besides, the AC50 under setting [1] is 1.84 µM [falling, partial curve].

Regarding `O=C(NC1CCSc2ccccc21)c1ccccc1F` (centres undefined), the cell number change is 8.62%. Still for that read-out and setting: to `COc1ccccc1C(c1nnnn1C(C)C)N1CCN(C(=O)c2ccco2)CC1` (centres undefined) belongs 18.1%.

`Clc1ccccc1CN1CCc2sccc2C1`: the cell number change was -28.6%. Also, the AC50 under setting [1] is 16.4 µM [rising, single point]. Consider `O=C(COC(=O)COc1ccccc1)NCCC1=CCCCC1`, for which the cell number change was -19.5%. Further, the AC50 under setting [1] was 1.03 µM [falling, full curve, poor fit]. For the molecule `COc1ccc(-c2cc(=Nc3c(C)n(C)n(-c4ccccc4)c3=O)c3ccccc3o2)cc1`, the cell number change worked out at 23.3%. Further, the AC50 under setting [1] was 0.92 µM [rising, full curve, poor fit].

For the molecule `O=C1[C@@H]2C(Cc3ccc(O)cc3)NC3(C(=O)Nc4ccc(F)cc43)[C@@H]2C(=O)N1c1ccc(F)cc1` (some centres undefined), the cell number change was 26.9%. For the same molecule, under setting [1], the AC50 was 29.1 µM [falling, single point]. In the case of `Clc1ccc2noc(-c3ccccc3)c2c1`, the cell number change was -31.6%. Further, the AC50 under setting [2] is 4.61 µM [falling, partial curve, poor fit]. Turning to `CCOC(=O)C1=C(C)Nc2nc(SCC)[nH]c(=O)c2C1c1ccncc1` (centres undefined), the cell number change was -2.53%. Take `CN(C(=O)COC(=O)c1cc(NS(=O)(=O)c2cc([N+](=O)[O-])ccc2Cl)ccc1O)C1CCCCC1`: the cell number change is 1.5%. Further, the AC50 under setting [1] was 0.259 µM [rising, full curve, poor fit]. As for `COCCCNCCC(CCC(C)C)c1ccc2c(c1)OCO2` (centres undefined), the cell number change is -3.87%.

Turning to `CCOC(=O)CSc1nc2cccnc2n1C`, the cell number change is -17.9%. For the same molecule, under setting [1], the AC50 is 10.3 µM [falling, partial curve]. In the case of `CCOc1ccc(CCNC(=O)COC(=O)c2cc(OC)cc(OC)c2)cc1OCC`, the cell number change is -59.3%. The AC50 under setting [1] is 29.1 µM [falling, partial curve, poor fit]. Turning to `CCC(C)(C)NC(=O)C(c1cccn1C)N(C(=O)Cn1nnc2ccccc21)c1ccc(OC)cc1OC` (centres undefined), the cell number change was -20%. In addition, under setting [1], the AC50 was 10.3 µM [falling, partial curve]. As to `CCOC(=O)C1(Cc2cccc(Cl)c2)CCCN(C(=O)CN2C(=O)CSC2=O)C1` (centres undefined), the cell number change was -25.2%. Moreover, the AC50 under setting [2] was 0.164 µM [falling, full curve, poor fit]. The AC50 under setting [1] is 29.1 µM [falling, single point]. On to `CC(=NCCc1ccccc1)C1=C(O)CSC1=O`, for which the cell number change was 10.1%. Also, the AC50 under setting [1] is 1.84 µM [falling, partial curve].

Regarding `CCc1c(C)nc2ncnn2c1NCCc1ccc(Cl)cc1`, the cell number change was -39.6%. Besides, the AC50 under setting [2] is 29.1 µM [falling, single point]. Besides, under setting [1], the AC50 was 23.1 µM [falling, partial curve]. Take `COC(=O)/C=c1/sc2n(c1=O)CCN=2`: the cell number change was determined as 1.21%. Take `COc1ccc(N(CC(=O)N2CCN(C)CC2)S(=O)(=O)c2ccccc2)cc1`: the cell number change is -14.5%. As for `COc1ccc(S(=O)(=O)NCC2CCCO2)c(Cl)c1Cl` (centres undefined), the cell number change was determined as 6.61%. The AC50 under setting [1] is 1.16 µM [rising, full curve, poor fit].

Take `CN(c1ccc(F)cc1)S(=O)(=O)c1ccc(Cl)c(C(=O)NCC(c2ccco2)N2CCCCC2)c1` (centres undefined): the AC50 was 6.51 µM [rising, single point] under setting [2] and 29.1 µM [falling, single point] under setting [1]. With `CN(Cc1cn(C)nc1-c1ccccc1F)CC1CCN(Cc2ccccc2)CC1`, the cell number change was determined as 29%. Moreover, under setting [1], the AC50 is 0.00411 µM [falling, full curve, poor fit]. Turning to `CN(CC(=O)NCCc1ccc(S(N)(=O)=O)cc1)c1ccccc1`, the cell number change stood at 9.23%. The AC50 under setting [2] is 0.00461 µM [falling, full curve, poor fit].

`O=C(CNC(=O)C1CCCCC1)NCc1ccco1`: the cell number change was found to be 4.05%. Further, under setting [1], the AC50 is 6.51 µM [falling, single point]. For the molecule `CCOc1ccc(/C=N/OC(C)C(=O)NCc2ccc3c(c2)OCO3)cc1` (centres undefined), the cell number change was 42%. In addition, the AC50 under setting [2] was 5.17 µM [rising, full curve]. In addition, under setting [1], the AC50 was 1.03 µM [rising, full curve]. In the case of `O=C(CSc1nnc(-c2ccccc2O)o1)NC1CCCCC1`, the cell number change came out at 25%. For the same molecule, under setting [1], the AC50 was 1.16 µM [rising, single point]. For `COC(=O)C1=C(CN2CCc3ccccc32)NC(=O)NC1c1cc(C)ccc1C` (centres undefined), the cell number change is -8.5%. Under setting [1], the AC50 was 6.51 µM [falling, single point]. Turning to `CCCNC(=O)c1ccc(N2CCC3(CC2)CC(c2cccc(Br)c2)=NO3)c(NC(=O)c2ccco2)c1`, the cell number change was -15.8%. Besides, the AC50 under setting [1] was 29.1 µM [falling, single point]. For the molecule `CC(C)(O)/C=C1/Oc2ccccc2C1N1CCCCC1` (centres undefined), the cell number change is -35.6%. Moreover, under setting [2], the AC50 was 1.16 µM [falling, partial curve]. Further, the AC50 under setting [1] was 1.16 µM [falling, full curve]. Consider `NC(=O)c1c(NC(=O)c2c(F)cccc2F)sc2c1CCN(Cc1ccccc1)C2`, for which the cell number change stood at 13%. Consider `CCOC(=O)c1ccc(NC(=O)COc2ccccc2CNCCc2ccccc2)cc1`, for which the cell number change was -77.7%. Also, the AC50 under setting [2] was 22.4 µM [falling, single point].

On to `Nn1c(SCC(=O)Nc2ccc3c(c2)OCO3)nnc1-c1ccccc1`, for which the cell number change is -21.5%. Further, the AC50 under setting [1] is 0.517 µM [rising, full curve, poor fit]. For `CN1CCC(=O)N([C@H](CO)c2ccccc2)CC1`, the cell number change was 2.1%. `COc1ccc(CCNC(=O)COC(=O)CCC(=O)c2ccc(F)cc2)cc1`: the cell number change was -33%. Also, under setting [2], the AC50 is 18.4 µM [falling, single point]. As for `O=C(Nc1cc(Cl)ccc1-n1cncn1)c1cc(S(=O)(=O)N2CCOCC2)ccc1F`, the cell number change is -34.6%. For the same molecule, the AC50 under setting [2] is 8.2 µM [falling, partial curve, poor fit]. Moreover, the AC50 under setting [1] is 11.6 µM [falling, partial curve]. On to `COc1cc(NC(=O)c2cccs2)c(OC)cc1NC(=O)CCC(=O)Nc1ccc(C)cc1`, for which the cell number change was found to be 515%. The AC50 under setting [2] was 25.9 µM [rising, partial curve].

In the case of `O=C(O)c1cn(C2CC2)c2cc(N3CCN(S(=O)(=O)c4ccc5c(c4)OCCO5)CC3)c(F)cc2c1=O`, the cell number change was determined as 150%.

Regarding `CCOC(=O)c1ccc(NC(=O)N2CCN(c3ccccc3OC)CC2)cc1`, the cell number change turned out to be 24.8%.

With `CN(C(=O)c1ccno1)c1nnc(-c2cnccn2)s1`, the AC50 under setting [2] was 0.58 µM [rising, single point]. Consider `Cc1ccnc(N2CCN(C(=O)CSc3nc4ccccc4nc3N3CCCCC3)CC2)c1`, for which the AC50 under setting [2] is 2.31 µM [rising, partial curve] and the AC50 under setting [1] was 2.31 µM [rising, partial curve]. For `Cc1ccc(-c2noc(-c3ccccc3C(=O)N3CCN(C)CC3)n2)cc1`, the cell number change was found to be 19.6%. For the same molecule, the AC50 under setting [1] is 29.1 µM [rising, single point].

As to `OC1(c2ccccc2)C/C(=N\n2cnnc2)C=C1c1ccccc1` (centres undefined), the cell number change stood at 7.65%. Moreover, the AC50 under setting [1] was 0.00517 µM [falling, full curve, poor fit]. `O=C(/C=C/c1ccccc1)NC(=O)c1ccccc1O`: the AC50 under setting [2] is 5.8 µM [falling, single point] and the AC50 under setting [1] is 2.06 µM [falling, partial curve]. For the molecule `O=c1c2ccccc2nc(COc2ccccc2)n1/N=C/c1cn[nH]c1-c1ccccc1`, the cell number change was determined as 0.826%. The AC50 under setting [1] was 0.103 µM [rising, full curve, poor fit].

`CCC(C(=O)NC1CC1)n1nc(C)c2c(C)n(-c3ccccc3)nc2c1=O` (centres undefined): the cell number change was 18.6%. Also, the AC50 under setting [1] was 23.1 µM [rising, single point]. Turning to `CCN(C(=O)c1cc2c(=O)[nH]c3ccc(C)cc3c2s1)c1ccccc1C`, the cell number change was 9%. As to `COCCN1Cc2cccc(C(=O)NC3CCCCCC3)c2C1=O`, the cell number change is 4.09%. Further, the AC50 under setting [1] is 18.4 µM [rising, single point]. As for `CCn1cc(SCC(=O)NCc2ccc3c(c2)OCO3)c2ccccc21`, the AC50 under setting [1] was 6.51 µM [rising, partial curve, poor fit]. On to `CN(C)CCCNC(=O)c1ccc(Cl)c(S(=O)(=O)N(C)c2ccccc2)c1`, for which the cell number change came to 12.4%. In addition, the AC50 under setting [1] is 0.164 µM [rising, full curve, poor fit].
